Reference: PubChem BioAssay AID504842 (National Center for Advancing Translational Sciences (NCATS), 2011)
About 100 (0.03%) of roughly 330,000 compounds were called active. The inconclusive results got no clear call from the source; some entries with a clear call stand among them for comparison. The call rests on the fitted dose curve; in most records, active means well fitted inhibition curve with a large enough effect; inconclusive means small, poorly fitted or top-dose-only effect; inactive means flat fitted curve, though single readings scatter. Where the call is inconclusive, the potency comes from a doubtful curve fit.

System: Chaperonin Mm-Cpn (Methanococcus maripaludis)
Experiment: Inhibitors of TCP-1 ring complex (TRiC) of Methanococcus maripaludis (MmCpn): qHTS; further: nearly all actives have a fitted effect of over 80% in size;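 on potency: enzyme at 25 nM with ATP substrate at 10 µM during the reaction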
Details: purified Mm-Cpn ATPase, ADP Transcreener TR-FRET; activity, negative = inhibition: at the top concentration
Method in brief: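 25 nM Mm-CPN + cpd, 10 min 37°C; + 10 uM ATP, 30 min 37°C; buffer 30 mM Tris pH 7.4, 100 mM KCl, 5 mM MgCl2, 1 mM DTT; Transcreener ADP HTRF detection 30 min RT.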
On the % scale 0 is the no-effect control and ±100 the full control effect; potency means the concentration at half of the fitted maximal effect.

Structure (SMILES) | Potency | activity, negative = inhibition
Cc1cc2nc(-c3ccc(SCC(=O)Nc4ccc(S(=O)(=O)NC5CC5)cc4)nc3)[nH]c2cc1C | inconclusive: 39.8 µM [inhibitor, single point] | 
Cc1cc(-c2nc(-c3ccncc3)no2)ccc1[N+](=O)[O-] |  | inactive: -0.716%
Cc1ccc(S(=O)(=O)N2CCCCC2)cc1NC(=O)CNCc1ccco1 | inconclusive: 89.1 µM [inhibitor, single point] | 
CCCOc1ccc(C(=O)NCCc2ccccc2)cc1 | inconclusive: 5.62 µM [inhibitor, single point] | 
O=C1c2cccc3cccc(c23)C(=O)N1OS(=O)(=O)c1ccc(Br)cc1 |  | inactive: 0.666%
Cc1cccc(Nc2nc(-c3ccc4c(c3)OCCO4)cs2)c1 | inconclusive: 100 µM [inhibitor, single point] | 
N#Cc1ccsc1NC(=O)CN1CCN(S(=O)(=O)c2cc(Cl)ccc2Cl)CC1 | inconclusive: 100 µM [inhibitor, single point] | 
COc1ccc(Cl)cc1NC(=O)CC(C)c1ccccc1 (stereo not given) |  | inactive: -0.735%
Cc1ccc(-n2c3nc(=O)[nH]c(=O)c-3cc3c(C)nn(-c4ccccc4)c32)c(C)c1 | inconclusive: 100 µM [inhibitor, partial curve, poor fit] | 
CCCCC(CC)CN=C(N)NC(N)=NCCCCCCN=C(N)NC(N)=NCC(CC)CCCC (stereo not given) | inconclusive: 100 µM [inhibitor, single point] | 
Cc1csc(C2=C(O)CN(CCc3ccccc3)C2=N)n1 | inconclusive: 22.4 µM [inhibitor, single point] | 
O=C(Nc1ccc(S(=O)(=O)N2CCOCC2)cc1)c1c(F)cccc1F |  | inactive: 0.319%
CCOC(=O)CC(NS(=O)(=O)c1ccc(OC)c(OC)c1)c1cccc([N+](=O)[O-])c1 (stereo not given) | inconclusive: 89.1 µM [inhibitor, single point] | 
CC(=O)N/C(=C\c1ccccc1)C(=O)OCc1cc(C)ccc1C | inconclusive: 22.4 µM [inhibitor, single point] | 
COc1ccccc1NC(=O)CSc1nc(N)c(C#N)cc1C#N |  | inactive: -13.1%
CCOC(=O)C1(CCc2ccccc2)CCN(Cc2cnc(N(C)C)s2)CC1 | inconclusive: 70.8 µM [inhibitor, single point] | 
Cc1nc(-c2ccc(S(=O)(=O)Nc3ccc(Br)cc3Cl)s2)cs1 | inconclusive: 251 µM [inhibitor, partial curve, poor fit] | 
CCc1ccc(NC(=O)CCCn2nc(CC)n3c(cc4occc43)c2=O)cc1 |  | inactive: -1.65%
O=S(=O)(Nc1ccccc1)c1ccc(-c2csnn2)cc1 |  | inactive: 1.11%
COc1ccc(C2(CNC(=O)CCC(=O)O)CCCC2)cc1 |  | inactive: 2.81%
CC1CCCCN1CCCNC(=O)c1ccc(Br)cc1 (stereo not given) | inconclusive: 20 µM [inhibitor, single point] | 
CCS(=O)(=O)N1CCN(c2cnn(-c3ccccc3)c(=O)c2Cl)CC1 | inconclusive: 316 µM [inhibitor, partial curve, poor fit] | 
Cc1ccc(C(=O)OCC(=O)NC2CCCCC2)o1 |  | inactive: 2.45%

A second format for some results above:
Structure (SMILES),Potency,"activity, negative = inhibition"
Cc1nc(-c2ccc(S(=O)(=O)Nc3ccc(Br)cc3Cl)s2)cs1,"inconclusive: 251 µM [inhibitor, partial curve, poor fit]",
CCc1ccc(NC(=O)CCCn2nc(CC)n3c(cc4occc43)c2=O)cc1,,inactive: -1.65%
O=S(=O)(Nc1ccccc1)c1ccc(-c2csnn2)cc1,,inactive: 1.11%

Continued:

Structure (SMILES) | Potency | activity, negative = inhibition
COc1ccccc1N1CCN(C(=O)CSc2nc3ccccc3nc2N2CCCCC2)CC1 | inconclusive: 501 µM [inhibitor, partial curve, poor fit] | 
CS(=O)(=O)N(CC(=O)Nc1ccc(S(=O)(=O)N2CCCC2)cc1)c1ccccc1 | inconclusive: 89.1 µM [inhibitor, partial curve, poor fit] | 
Nc1c2c(nn1-c1ccc(C(=O)O)cc1)CNC2 | inconclusive: 10 µM [inhibitor, single point] | 
CSCCC(NC(=O)COc1ccccc1)C(=O)OC(C)C(=O)Nc1ccccc1C (stereo not given) | inconclusive: 14.1 µM [inhibitor, single point] | 
CN1CCCCc2c1nc1c(c2N)CCCC1 |  | inactive: 0.626%
COC(=O)c1cn(C(C)C(=O)NCc2ccco2)c2ccccc12 (stereo not given) | inconclusive: 56.2 µM [inhibitor, single point] | 
Cc1ccc(CNC(=O)CC2Nc3c4ccccc4nc(=S)n3C2=O)cc1 (stereo not given) |  | inactive: -4.08%
Cn1c(Cl)c(/C=N/OC(=O)C2CC2)c2ccccc21 |  | inactive: 2.46%
COC(=O)CSc1nnc(-c2ccc(S(=O)(=O)N3CCCC3)cc2)n1C | inconclusive: 79.4 µM [inhibitor, single point] | 
Nn1c(SCC(=O)NCCC2=CCCCC2)nnc1-c1cccnc1 |  | inactive: 2.03%
CO/N=C/C(c1ncc(C(F)(F)F)cc1Cl)S(=O)(=O)c1ccccc1 (stereo not given) | inconclusive: 100 µM [inhibitor, single point] | 
COc1cc(OC)cc(-c2nc(-c3cccs3)no2)c1 | inconclusive: 10 µM [inhibitor, single point] | 
Cn1cnc([N+](=O)[O-])c1Sc1nc2ccccc2[nH]1 |  | inactive: 0.786%
O=C(/C(=C/O)N=Nc1ccccc1)c1ccco1 | inconclusive: 100 µM [inhibitor, single point] | 
Cc1ccccc1C(=O)Nc1ccccc1C(=O)NCc1ccccc1 |  | inactive: 1.07%
CCOC(=O)N1CCC(N2C(=O)c3ccccc3C2Nc2cc(C(=O)OC)cc(C(=O)OC)c2)CC1 (stereo not given) | inconclusive: 63.1 µM [inhibitor, single point] | 
C=CCn1c(SCCN2C(=O)c3ccccc3C2=O)nc2scc(-c3ccccc3)c2c1=O | inconclusive: 31.6 µM [inhibitor, single point] | 
Cc1ccc(NC(=O)Cn2cnc3cc([N+](=O)[O-])ccc3c2=O)c(Cl)c1 | inconclusive: 79.4 µM [inhibitor, single point] | 
O=C(OCC(=O)N1CCN(S(=O)(=O)c2ccc(Cl)cc2)CC1)c1cc(Br)ccc1O | inconclusive: 79.4 µM [inhibitor, single point] | 
Nc1nc(Nc2ccccc2Cl)cc(=O)[nH]1 | inconclusive: 14.1 µM [inhibitor, single point] | 
N#C/C=C(/N)c1ccc(Br)cc1 | inconclusive: 100 µM [inhibitor, single point] | 
CCCC(C(=O)NCc1ccco1)N(CC1CCCO1)C(=O)CNS(=O)(=O)c1ccc(F)cc1 (stereo not given) | inconclusive: 25.1 µM [inhibitor, single point] | 
